Test results published in paper PMC8168755, “Discovery of new VEGFR-2 inhibitors based on bis([1, 2, 4]triazolo)[4,3-a:3',4'-c]quinoxaline derivatives as anticancer agents and apoptosis inducers” (Journal of Enzyme Inhibition and Medicinal Chemistry, 2021).
For part of its entries the source gives two or more results. This is not the full list of results. An entry can have further records. The records of an entry do not match, cause unknown; some may be repeats, others may stem from another dose, organism or construct than stated.

System: BAX/Bcl-2 ratio
Experiment: Western blot, BAX/Bcl-2 ratio in HepG2 cells
Details: HepG2, 24 h; control 1.00; mean ± SEM of three experiments

O=C(CSc1nnc2c3nncn3c3ccccc3n12)Nc1ccc(C(=O)Nc2cc(Cl)ccc2Cl)cc1 [Compound 23j, 4-(2-(Bis([1,2, 4]triazolo)[4,3-a:3′,4′-c]uinoxaline-3-ylthio)acetamido)-N-(2,5-dichlorophenyl)benzamide]
Protein expression (normalized to β-actin) BAX/Bcl-2 ratio: 4.34 and 4.34 ···
